In all, about 33,000 sequences were measured (“E-score (-0.5 to 0.5)”: median about -8e-05, highest 2% from about 0.23 on). This is one part of the list.
What follows are sequences tested against T1, Nrg2 (UniProt P38082) (assay: PBM E-score (8-mer binding enrichment) (E-score (-0.5 to 0.5)); higher = stronger / more preferred TF binding). Conditions: protein concentration: 100 nM; construct: GST-full length.
T1 sequence: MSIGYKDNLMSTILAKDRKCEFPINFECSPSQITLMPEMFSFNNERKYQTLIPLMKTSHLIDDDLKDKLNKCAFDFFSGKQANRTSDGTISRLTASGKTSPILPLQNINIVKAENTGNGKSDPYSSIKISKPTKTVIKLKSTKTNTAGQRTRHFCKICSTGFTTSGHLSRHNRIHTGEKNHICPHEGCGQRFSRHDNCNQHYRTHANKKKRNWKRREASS
Procedure: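 Universal 'all 10-mer' protein binding microarrays (Agilent AMADID 015681) probed with GST-tagged S. cerevisiae TFs (full-length or DBD) made by in vitro transcription/translation (PURExpress), about 100-200 nM. Bound TF was detected with fluorescent anti-GST. Each ungapped 8-mer (which stands for itself and its reverse complement) is scored by the PBM enrichment score (E-score), a modified Wilcoxon-Mann-Whitney statistic from -0.5 to +0.5, computed with the Universal PBM Analysis Suite. Scale: above 0.35 generally sequence-specific binding.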

| Sequence | PBM E-score |
| --- | --- |
| ACATACTA | 0.142 |
| CTCTAGAC | -0.27 |
| ACTACCGG | -0.171 |
| GCAATGGA | -0.0172 |
| AAACAAGT | 0.0802 |
| CTGGGGCC | -0.146 |
| AGCCCCGC | -0.045 |
| GATGCCCC | -0.142 |
| AAGTGGCA | 0.00942 |
| TCGCAACA | -0.00912 |
| ATTGACCA | 0.0894 |
| GATTAGCA | 0.117 |
| CTGCCTCA | -0.149 |
| GTTAAACA | -0.0195 |
| CGCTAATA | 0.135 |
| ACCGTGAT | -0.0559 |
| ACCGGGTG | 0.0298 |
| ACCTGACG | -0.0678 |
| GCACCCCC | -0.415 |
| AGCAACCT | 0.0551 |
| CTGACCAA | 0.108 |
| TGGTCACA | 0.0019 |
| GGGGAACC | -0.306 |
| AGCAGTAC | 0.0383 |
| CTCTCGTA | 0.0224 |

| Sequence | PBM E-score |
| --- | --- |
| ACCACGTC | -0.0526 |
| AACTTTGG | -0.0393 |
| ATGTTGAG | 0.035 |
| ACCACATC | 0.065 |
| GCAATTCC | -0.0691 |
| CCAAATCG | -0.103 |
| GGGGTACA | -0.0329 |
| ACAATACC | 0.291 |
| CCTCAGAC | -0.149 |
| AACAGGTG | 0.0236 |
| CCTTCAGC | -0.121 |
| CAGACATA | -0.0103 |
| CCGCGGAG | -0.0834 |
| AAACGGCA | -0.0106 |
| ACTAGCGA | -0.0233 |
| ATACATCA | 0.153 |
| GTCTTCAA | -0.0718 |
| GGGCTCAA | -0.0682 |
| GGATCCAC | -0.117 |
| GATGCCGC | -0.0962 |
| CAGAGGTA | 0.0242 |
| CTAACACC | -0.0699 |
| GGCGTAGA | -0.0443 |
| CGAGCTCG | 0.241 |
| AATTCGCA | 0.229 |

| Sequence | PBM E-score |
| --- | --- |
| GATCACGA | -0.0194 |
| CCCTACGG | -0.0955 |
| CGCGTAGC | 0.0481 |
| GACACTAC | -0.136 |
| ATACTCGC | 0.0784 |
| CTAGAATA | 0.0292 |
| GAGCACTA | -0.131 |
| ATCGCAAA | 0.127 |
| GCTAATCA | 0.179 |
| GCTGCCCA | -0.08 |
| AGCGTTGG | -0.185 |
| AAGATGGA | -0.0315 |
| CGAAGTCA | -0.0646 |
| ATTCGCTC | 0.132 |
| GCGCTGGA | 0.0138 |
| TATTGCCA | -0.0524 |
| GATGTTCC | 0.0463 |
| ACAGCTCC | -0.0601 |
| AAATGTAG | -0.00514 |
| TACAATCA | -0.0931 |
| AAGAGATA | -0.0138 |
| ATTCGTAC | 0.155 |
| GATCGACA | 0.00588 |
| ACCCTCCC | 0.255 |
| GTCGCAGA | 0.203 |

Taken from above:
In PBM E-score, ACAGCTCC is entered as -0.0601
In PBM E-score, AACAGGTG is entered as 0.0236
In PBM E-score, ACCTGACG is entered as -0.0678
In PBM E-score, CTGACCAA is entered as 0.108

The list goes on:

| Sequence | PBM E-score |
| --- | --- |
| AATCTTGT | 0.116 |
| CGTGCTAA | -0.0191 |
| CCATTTGA | 0.0335 |
| AACGAAGG | -0.14 |
| TCTTCGCA | 0.139 |
| CTTCAGTC | -0.122 |
| TACTCCAA | 0.0819 |
| ACGTCAAC | -0.0313 |
| ATTGAGTG | 0.0354 |
| GATCAGGC | -0.14 |
| TCCAAGGA | -0.171 |
| AGTCTAGA | -0.16 |
| ACGCACTA | -0.00707 |
| CTTTGCCC | -0.226 |
| AGCGCGGA | 0.102 |
| ATCTATTA | 0.163 |
| AGACCCCC | -0.304 |
| CCCCTGAA | 0.356 |
| ATGTATGG | -0.051 |
| CATCCAAG | 0.00236 |
| AAGGGTAG | 0.0465 |
| CCTTCAAG | -0.0921 |
| AGCACGAT | 0.135 |
| GCTAGTTA | 0.0841 |
| CAACTCAC | 0.128 |

| Sequence | PBM E-score |
| --- | --- |
| GCAGAATA | 0.104 |
| ACGAGCCC | 0.0528 |
| TGAACAAA | 0.244 |
| ATACCGAA | 0.0263 |
| ATTCTATG | 0.0635 |
| AGGATATG | 0.192 |
| ATACGGGC | -0.114 |
| CAGTCTGG | -0.268 |
| ATGTTCAA | -0.00349 |
| CGAAAGCC | -0.19 |
| CAGGTTGG | 0.0184 |
| ACAATGCA | 0.152 |
| CCGCACGG | -0.045 |
| CCGCCTTA | -0.152 |
| CGTGGTTA | -0.104 |
| AGTCCGTC | 0.0768 |
| AAGACACG | 0.168 |
| AGTACTAA | 0.11 |
| AAGTTCCT | -0.0711 |
| AGATTCCA | 0.136 |
| ATAGTAGA | 0.102 |
| ACGATGCA | 0.0715 |
| AGTATCTG | -0.0103 |
| ACTGTTGA | -0.102 |
| TATATGAA | 0.087 |

| Sequence | PBM E-score |
| --- | --- |
| GAGGTATA | 0.0307 |
| GGCCAACC | 0.0203 |
| TATACGAA | 0.122 |
| AATGATAA | 0.179 |
| ACACTCCT | -0.0582 |
| AATTCCAC | 0.191 |
| ATGGGGCG | 0.187 |
| TCTGGCCA | 0.0291 |
| GCGATACC | -0.0961 |
| AGAACTGA | 0.0121 |
| CCTTAGCA | 0.0481 |
| ATCGACGC | 0.16 |
| GGCCAGAC | -0.0951 |
| ATTTAGTA | 0.274 |
| GCGGTTGA | 0.09 |
| GGATTAAA | 0.0406 |
| AAACGTAT | 0.127 |
| AAATGTGG | 0.151 |
| GCGCAAAA | 0.155 |
| ACCGTAAA | -0.00298 |
| ACTGGCAA | -0.0546 |
| AGGGAGTA | -0.118 |
| CACGTTGC | -0.168 |
| AAGTTCAT | 0.113 |
| GAGCGCGC | 0.263 |

| Sequence | PBM E-score |
| --- | --- |
| GGACCCCC | -0.144 |
| AGACCACC | -0.189 |
| ACTTGCAC | 0.133 |
| AGGTCGAC | 0.171 |
| AGGCGGCC | -0.115 |
| TACGCATA | 0.171 |
| TATCGAAA | 0.255 |
| CTTGTCGC | 0.19 |
| ACTGAGAT | -0.0779 |
| AGGGAACA | 0.0207 |
| AACTAAAG | 0.0714 |
| CTTGGGCC | -0.0162 |
| AAATATGG | 0.00101 |
| ATCAAGGG | 0.221 |
| GTATCAAC | 0.0324 |
| CAGGATTA | -0.0705 |
| ACGACGAT | -0.00018 |
| CGAGCACC | -0.126 |
| CCTGACTC | -0.0375 |
| CAGAGATG | -0.0114 |
| CATCTTCA | -0.119 |
| AGACCTTC | -0.106 |

Reference: the supplement of paper PMC3334620
